Measurements from PubChem BioAssay AID540303 (National Center for Advancing Translational Sciences (NCATS), 2011).
Screen size: about 330,000 compounds; about 1,000 (0.3%) were called active. The inconclusive results got no clear call from the source; some entries with a clear call stand among them for comparison. Calls follow the shape of the dose curve; as a rule, active = well fitted inhibition curve with a large enough effect; inconclusive = small, poorly fitted or top-dose-only effect; inactive = no such curve, though single readings can be large or run the other way; tested in mouse RAW 264.7 cells. A potency beside an inconclusive call is a rough fit, not a confirmed value.

test: qHTS for Inhibitors of Cell Surface uPA Generation; details: cell surface uPA generation assay; series mostly up to 38.3 µM; also: nearly all actives have a fitted effect of over 55% in size
Procedure, shortened: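 Intracellular ATP by ATPlite luminescence serves as read-out: inhibited cell-surface uPA generation prevents LF translocation, preserving ATP. Murine RAW 264.7 macrophages were treated 24 h at 37 C with five-fold serial dilutions, up to 38.3 uM final.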
Potency is read from the fitted curve at half-maximal effect.

SMILES	Potency
CCS(=O)(=O)Nc1ccc(C2=NN(C(=S)Nc3ccccc3)C(c3ccco3)C2)cc1 (configuration not stated)	inconclusive: 28.2 µM [inhibitor, single point]
O=C(Nc1nccs1)c1ccc(Cl)c([N+](=O)[O-])c1	inconclusive: 8.91 µM [inhibitor, single point]
Cc1ccc(/C=C2/Sc3ccc(C(=O)N4CCN(c5ccccn5)CC4)cc3NC2=O)cc1	inactive
O=S(=O)(c1ccc2oc(=S)[nH]c2c1)N1CCCCC1	inactive
COCCOC1CCN(Cc2cn(Cc3ccccc3)nc2-c2cc3ccccc3o2)CC1	inconclusive: 12.6 µM [inhibitor, partial curve, poor fit]
C[C@H]1C=CC(=O)O[C@H]1c1ccccc1	active: 2.51 µM
COc1cc(C(=O)N(C)C2CCCCC2)ccc1OC1CCN(C(C)=O)CC1	inconclusive: 28.2 µM [inhibitor, partial curve, poor fit]
COc1ccc(NS(=O)(=O)c2cc(NC(=O)c3cc(F)c(F)c(F)c3F)ccc2N2CCCC2)cc1	inconclusive: 12.6 µM [inhibitor, single point]
Cc1ccc2c(c1)c1ccc3c(c1n2C)C(=O)C=CC3=O	inconclusive: 7.08 µM [inhibitor, single point]
CCCCC1=CC2=CC(=O)C(C)(OC(=O)CC)C(=O)C2=CN1c1ccccc1 (configuration not stated)	inactive
CN1C(=O)c2cccc3c(S(=O)(=O)Nc4ccccn4)ccc1c23	inactive
O=C(Nc1ccc(-c2cscn2)cc1)C1CCCN(Cc2ccccc2)C1 (configuration not stated)	inconclusive: 11.2 µM [inhibitor, single point]
CCCn1c(SCC(=O)c2cc(C)n(-c3cc(C)on3)c2C)n[nH]c1=O	inactive
Cc1ccc2nc3c(cc(C(=O)NC4CCCC4)c(=N)n3C3CCCCC3)c(=O)n2c1	inconclusive: 1 µM [inhibitor, full curve, poor fit]
CCN1C(N(C)CCc2cccs2)=N[C@@H](c2ccccc2)C(C(=O)OC)=C1C	inconclusive: 28.2 µM [inhibitor, single point]
COC(=O)C1=C(C)N(Cc2ccccc2)C(=NCc2cccc(C(F)(F)F)c2)N[C@H]1c1cccc(F)c1	inconclusive: 20 µM [inhibitor, single point]
CC(=O)Nc1ccc(-c2nc3ccc(NC(C)=O)cc3o2)cc1	inconclusive: 7.94 µM [inhibitor, partial curve, poor fit]
CCc1ccccc1Nc1nc2ccccc2n1CC	inactive
Cc1ccc(/C=C/c2ccc(N(C)C)cc2)[n+](C)c1	inconclusive: 1.12 µM [inhibitor, partial curve, poor fit]
O=C(NC(=S)Nc1ccc(S(=O)(=O)NC2CCCCC2)cc1)c1cccs1	inactive
C=CCN1C(=O)C(O)(CC(=O)c2ccco2)c2cc(Br)ccc21 (configuration not stated)	inconclusive: 12.6 µM [inhibitor, single point]
CCCn1c(N)c(C(=O)CSc2nnc(-c3cccs3)n2C2CC2)c(=O)[nH]c1=O	inconclusive: 1.26 µM [inhibitor, partial curve, poor fit]
COc1cc(C(=S)N2CCCCC2)ccc1OCC(=O)Nc1ccccc1Cl	inactive

SMILES	Potency
Cc1csc(NC(=O)c2ccc(C)c([N+](=O)[O-])c2)n1	inactive
COc1cc(CNc2ccc(N3CCCC3)cc2)ccc1OCc1ccccc1	inactive
COc1cc(NC(=O)c2nnn(Cc3ccc(SC)cc3)c2N)cc(OC)c1	inconclusive: 28.2 µM [inhibitor, single point]
COc1ccc(C(=O)/C=C/C(=O)N(CC(=O)NC2CCCCC2)Cc2cccs2)c(O)c1	inconclusive: 3.16 µM [inhibitor, partial curve, poor fit]
S=C(NCCc1ccccc1)N/N=C/c1ccc(Cl)cc1	inactive
COc1cccc(NC(=S)/C(=C(\[O-])c2cc(C)n(-c3ccccc3F)c2C)[n+]2ccc(N(C)C)cc2)c1	inconclusive: 31.6 µM [inhibitor, partial curve, poor fit]
Cc1cccc(-c2c3c(=O)n(C)c(=O)n(C)c3cn2-c2ccccc2O)c1	inactive
CC(C)C(=O)c1c(C(C)C)nn2ccccc12	inconclusive: 0.447 µM [inhibitor, partial curve, poor fit]
CCCCOc1ccccc1C(=O)N(Cc1ccc(C)o1)C1CCS(=O)(=O)C1 (configuration not stated)	inconclusive: 12.6 µM [inhibitor, single point]
C/C(=N/NC(=O)c1ccc(Br)o1)c1cccs1	inactive
Cc1cccc(NS(=O)(=O)c2ccc(NC(=O)CN(c3cc([N+](=O)[O-])ccc3C)S(C)(=O)=O)cc2)c1	inconclusive: 28.2 µM [inhibitor, single point]
CCOC(=O)C(C)Oc1cccc2c(=O)n(CC(=O)NCc3ccc(F)cc3)ccc12 (configuration not stated)	active: 0.316 µM
CC(=O)Oc1cc(C(=O)OCC(=O)NC23CC4CC(CC(C4)C2)C3)cc(OC(C)=O)c1OC(C)=O	active: 10 µM
COc1ccc(OC)c(Nc2cc(C)nc3nc(C)nn23)c1	inconclusive: 8.91 µM [inhibitor, partial curve]
Cc1onc(-c2ccccc2)c1C(=O)N/N=C/c1cc(Br)c(Br)o1	inactive
COc1cc2[nH]c3c(Cl)ncnc3c2cc1OC	inconclusive: 12.6 µM [inhibitor, single point]
O=C(Nc1ccc(Br)cc1C(=O)O)c1ccc2c(c1)C(=O)N(Cc1ccccc1)C2=O	inactive
CC(C)(C)OC(=O)NCCCC[C@H](NC(=O)c1nc[nH]c1C(=O)NC(c1ccccc1)c1ccccc1)C(=O)OC(C)(C)C	inconclusive: 11.2 µM [inhibitor, single point]
Cc1cc(Nc2cc(Cl)nc(Sc3ccc(NC(=O)C4CC4)cc3)n2)n[nH]1	inconclusive: 17.8 µM [inhibitor, partial curve, poor fit]
Cc1ccc(NC(=S)NCc2ccccc2)cc1C	inactive
CCOC(=O)/C=c1/s/c(=C\c2c(OC)ccc3ccccc23)c(=O)n1CC(=O)NCC1CCCO1 (configuration not stated)	inactive
C=C(C)CSc1nnc(-c2ccccc2)n1N	inactive
COCCNC(=O)c1ccc(N(C)S(=O)(=O)c2ccc(OC)c(OC)c2)cc1	inactive

A few values from the results shown:
Potency, CCS(=O)(=O)Nc1ccc(C2=NN(C(=S)Nc3ccccc3)C(c3ccco3)C2)cc1 (configuration not stated) is entered as inconclusive: 28.2 µM [inhibitor, single point]
Potency, COc1cc2[nH]c3c(Cl)ncnc3c2cc1OC is entered as inconclusive: 12.6 µM [inhibitor, single point]
Potency, C[C@H]1C=CC(=O)O[C@H]1c1ccccc1 is entered as active: 2.51 µM

(listing goes on)

SMILES	Potency
CCOC(=O)C1CCN(C(=O)c2ccc(S(=O)(=O)Nc3ccccc3OC)cc2)CC1	inconclusive: 8.91 µM [inhibitor, partial curve, poor fit]
C[C@H](CO)N1C[C@H](C)[C@@H](CN(C)C(=O)Nc2ccccc2)Oc2c(NC(=O)Nc3ccc(C(F)(F)F)cc3)cccc2C1=O	inconclusive: 10 µM [inhibitor, single point]
CCCCCOc1ccc(CSC2=NCCN2)cc1[N+](=O)[O-]	active: 10 µM
Cc1cc(-c2ccc(S(=O)(=O)N(C)c3ccc(C)c(C)c3)s2)on1	inconclusive: 3.16 µM [inhibitor, partial curve, poor fit]
COC(=O)c1cc(N=Nc2sc(N)nc2C)cc(C(=O)OC)c1	inconclusive: 10 µM [inhibitor, single point]
CCOCCCN(C(=O)Cn1nnc(-c2ccc(OC)c(OC)c2)n1)C(C(=O)NCC1CCCO1)c1ccc(F)cc1 (configuration not stated)	inactive
O=c1cc(-c2ccc(Cl)cc2)[nH]c2ccccc12	inconclusive: 2.51 µM [inhibitor, partial curve, poor fit]
CCOc1ccccc1/C=C/c1onc(C)c1S(=O)(=O)N1CCC(C(=O)N(CC)CC)CC1	inconclusive: 12.6 µM [inhibitor, single point]
O=S(=O)(NC1c2cccc3cccc(c23)C1N1CCN(CCO)CC1)c1ccccc1 (configuration not stated)	inactive
COc1cc(N2C(=O)CSC2=S)cc(OC)c1OC	inconclusive: 20 µM [inhibitor, single point]
COC(=O)[C@H](CC(C)C)NC(=O)Cn1cnc(C(=O)Nc2ccc(C)c(C)c2)n1	inconclusive: 11.2 µM [inhibitor, partial curve]
CCCOc1ccc(-c2nnn(CC(=O)N3CCC(C)CC3)n2)cc1	inactive
CN(C)N=Nc1nc[nH]c1C(N)=O	inconclusive: 6.31 µM [inhibitor, partial curve, poor fit]
CCCCOc1ccc(C(=O)Nc2ccc3c(c2)OCO3)cc1	inconclusive: 3.55 µM [inhibitor, partial curve, poor fit]
Oc1ccc(O)c(-c2cnns2)c1	inactive
O=C(Nc1ccc([N+](=O)[O-])cc1Cl)c1cc(Cl)ccc1O	inconclusive: 3.55 µM [inhibitor, partial curve, poor fit]
O=c1[nH]c2ccccc2cc1CN(Cc1cccnc1)S(=O)(=O)c1ccc([N+](=O)[O-])cc1	inconclusive: 4.47 µM [inhibitor, partial curve, poor fit]
Oc1c(C(c2ccccn2)N2CCCCC2)cc(Cl)c2cccnc12 (configuration not stated)	inconclusive: 11.2 µM [inhibitor, single point]
COCOc1ccc(-c2cc(=O)c3c(OCOC)cc(OCOC)cc3o2)cc1	inconclusive: 7.94 µM [inhibitor, partial curve, poor fit]
CC[C@]12c3[nH]c4ccc(Cl)cc4c3CCN1C(=O)[C@@H](CC(=O)NC/C=C(\C)CCC=C(C)C)C[C@@H]2C(=O)N1CCN(C(=O)C2CC2)CC1	inconclusive: 11.2 µM [inhibitor, single point]
O=C(/C=C1\C(=O)Nc2ccccc21)/C=C1\C(=O)Nc2ccccc21	inconclusive: 8.91 µM [inhibitor, single point]

A different layout for 2 compounds above:
SMILES | Potency
Oc1ccc(O)c(-c2cnns2)c1 | inactive
O=C(Nc1ccc([N+](=O)[O-])cc1Cl)c1cc(Cl)ccc1O | inconclusive: 3.55 µM [inhibitor, partial curve, poor fit]
